Assay results taken from the supplement of paper PMC10849652.
Some of the results follow.

Protein sequences, listed by entry. Tags and fused reporters are not part of them. Lines headed by an entry give the natural chain unless they say otherwise; changes in a name come on top.
UniProt Q92581: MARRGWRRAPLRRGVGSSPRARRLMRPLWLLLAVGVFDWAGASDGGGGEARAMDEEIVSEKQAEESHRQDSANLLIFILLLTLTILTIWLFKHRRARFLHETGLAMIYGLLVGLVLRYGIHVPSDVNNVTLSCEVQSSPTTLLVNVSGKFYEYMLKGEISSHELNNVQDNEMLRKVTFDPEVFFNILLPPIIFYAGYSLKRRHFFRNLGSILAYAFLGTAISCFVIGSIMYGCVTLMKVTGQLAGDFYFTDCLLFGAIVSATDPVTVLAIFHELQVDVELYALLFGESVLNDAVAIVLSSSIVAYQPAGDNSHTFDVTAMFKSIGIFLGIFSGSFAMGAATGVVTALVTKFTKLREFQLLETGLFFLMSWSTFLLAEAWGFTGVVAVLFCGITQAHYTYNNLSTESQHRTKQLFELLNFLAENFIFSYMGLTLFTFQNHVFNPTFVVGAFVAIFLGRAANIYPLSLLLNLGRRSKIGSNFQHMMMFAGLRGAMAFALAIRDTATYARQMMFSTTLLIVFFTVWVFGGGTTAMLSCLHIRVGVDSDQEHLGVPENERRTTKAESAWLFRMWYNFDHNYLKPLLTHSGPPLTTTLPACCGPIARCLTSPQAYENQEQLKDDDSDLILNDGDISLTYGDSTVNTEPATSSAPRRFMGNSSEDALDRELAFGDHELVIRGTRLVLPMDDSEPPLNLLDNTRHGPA
UniProt P04179: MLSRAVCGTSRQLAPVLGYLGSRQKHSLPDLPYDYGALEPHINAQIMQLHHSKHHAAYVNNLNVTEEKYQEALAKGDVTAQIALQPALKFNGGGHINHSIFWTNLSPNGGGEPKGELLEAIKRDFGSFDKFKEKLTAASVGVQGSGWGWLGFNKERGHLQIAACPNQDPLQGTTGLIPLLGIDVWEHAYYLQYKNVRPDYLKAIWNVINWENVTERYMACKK
UniProt Q8N5G0: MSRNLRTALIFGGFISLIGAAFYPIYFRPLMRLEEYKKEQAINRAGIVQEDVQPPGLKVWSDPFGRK
UniProt Q16637, whole entry, looked up: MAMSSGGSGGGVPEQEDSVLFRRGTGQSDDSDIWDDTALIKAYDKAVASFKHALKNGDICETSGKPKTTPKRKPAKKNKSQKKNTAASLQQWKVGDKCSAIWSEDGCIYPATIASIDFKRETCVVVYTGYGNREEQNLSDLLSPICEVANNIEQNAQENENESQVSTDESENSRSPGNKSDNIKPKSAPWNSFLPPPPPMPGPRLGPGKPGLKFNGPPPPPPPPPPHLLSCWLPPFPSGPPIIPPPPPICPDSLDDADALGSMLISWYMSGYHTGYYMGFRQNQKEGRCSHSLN
UniProt Q9Y2E8: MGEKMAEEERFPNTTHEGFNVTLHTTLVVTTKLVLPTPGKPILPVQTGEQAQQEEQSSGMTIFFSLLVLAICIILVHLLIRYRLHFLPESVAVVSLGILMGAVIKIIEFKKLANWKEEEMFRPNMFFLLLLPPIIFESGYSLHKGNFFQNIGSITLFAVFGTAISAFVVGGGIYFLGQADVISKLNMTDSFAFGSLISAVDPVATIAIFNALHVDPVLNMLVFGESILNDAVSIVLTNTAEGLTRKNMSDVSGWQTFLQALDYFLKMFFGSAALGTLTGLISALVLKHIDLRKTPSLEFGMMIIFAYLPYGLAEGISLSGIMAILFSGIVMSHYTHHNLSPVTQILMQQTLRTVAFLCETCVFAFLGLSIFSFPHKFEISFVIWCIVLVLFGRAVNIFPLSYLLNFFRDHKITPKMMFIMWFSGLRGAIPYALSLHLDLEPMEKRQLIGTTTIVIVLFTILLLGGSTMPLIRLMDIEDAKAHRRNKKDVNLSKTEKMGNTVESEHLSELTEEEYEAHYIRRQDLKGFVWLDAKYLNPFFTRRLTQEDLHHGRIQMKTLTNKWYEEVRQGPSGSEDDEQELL
UniProt Q9H4L7: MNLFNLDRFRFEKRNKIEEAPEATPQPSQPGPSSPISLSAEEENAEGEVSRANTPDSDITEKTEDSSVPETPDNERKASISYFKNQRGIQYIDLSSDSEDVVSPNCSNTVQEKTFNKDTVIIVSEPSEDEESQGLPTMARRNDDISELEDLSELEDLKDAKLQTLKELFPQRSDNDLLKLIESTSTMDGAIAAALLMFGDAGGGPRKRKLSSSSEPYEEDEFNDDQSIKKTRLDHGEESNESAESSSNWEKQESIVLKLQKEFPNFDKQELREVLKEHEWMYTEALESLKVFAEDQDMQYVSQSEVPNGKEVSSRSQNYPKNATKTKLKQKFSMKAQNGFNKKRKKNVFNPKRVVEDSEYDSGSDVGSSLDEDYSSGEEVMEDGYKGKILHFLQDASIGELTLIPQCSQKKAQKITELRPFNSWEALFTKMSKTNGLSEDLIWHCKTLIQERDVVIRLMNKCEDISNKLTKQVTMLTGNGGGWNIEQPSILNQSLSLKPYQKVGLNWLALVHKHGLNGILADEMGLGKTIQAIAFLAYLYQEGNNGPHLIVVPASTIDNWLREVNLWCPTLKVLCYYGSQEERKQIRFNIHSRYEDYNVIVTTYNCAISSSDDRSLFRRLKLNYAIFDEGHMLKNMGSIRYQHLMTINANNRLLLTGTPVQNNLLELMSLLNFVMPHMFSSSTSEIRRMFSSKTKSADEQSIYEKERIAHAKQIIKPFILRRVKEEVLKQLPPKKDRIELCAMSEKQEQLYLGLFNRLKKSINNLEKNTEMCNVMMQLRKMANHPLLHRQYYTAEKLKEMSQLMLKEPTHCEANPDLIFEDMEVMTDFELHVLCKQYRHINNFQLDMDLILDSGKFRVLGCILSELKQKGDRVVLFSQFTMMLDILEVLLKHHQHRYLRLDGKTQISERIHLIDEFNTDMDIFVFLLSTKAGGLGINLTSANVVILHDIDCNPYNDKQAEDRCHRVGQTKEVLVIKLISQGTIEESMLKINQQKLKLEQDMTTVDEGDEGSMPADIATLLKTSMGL
UniProt Q9H0W8: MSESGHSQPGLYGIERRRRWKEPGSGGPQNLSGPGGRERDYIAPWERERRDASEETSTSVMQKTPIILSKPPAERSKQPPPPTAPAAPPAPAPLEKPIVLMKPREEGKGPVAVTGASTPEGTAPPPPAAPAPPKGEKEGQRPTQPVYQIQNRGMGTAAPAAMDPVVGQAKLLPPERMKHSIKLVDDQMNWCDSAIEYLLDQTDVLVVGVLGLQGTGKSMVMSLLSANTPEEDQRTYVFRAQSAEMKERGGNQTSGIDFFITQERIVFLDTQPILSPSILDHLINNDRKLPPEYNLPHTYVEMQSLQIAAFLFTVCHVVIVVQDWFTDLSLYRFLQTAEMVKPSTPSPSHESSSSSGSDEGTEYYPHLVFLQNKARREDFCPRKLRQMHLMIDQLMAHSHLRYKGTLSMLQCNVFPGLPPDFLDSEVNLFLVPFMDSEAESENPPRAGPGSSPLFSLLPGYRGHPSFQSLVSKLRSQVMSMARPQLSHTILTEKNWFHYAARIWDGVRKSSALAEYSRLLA
UniProt P02814: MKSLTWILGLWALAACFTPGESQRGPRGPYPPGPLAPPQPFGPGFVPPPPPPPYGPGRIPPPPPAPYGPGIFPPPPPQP
UniProt O14745: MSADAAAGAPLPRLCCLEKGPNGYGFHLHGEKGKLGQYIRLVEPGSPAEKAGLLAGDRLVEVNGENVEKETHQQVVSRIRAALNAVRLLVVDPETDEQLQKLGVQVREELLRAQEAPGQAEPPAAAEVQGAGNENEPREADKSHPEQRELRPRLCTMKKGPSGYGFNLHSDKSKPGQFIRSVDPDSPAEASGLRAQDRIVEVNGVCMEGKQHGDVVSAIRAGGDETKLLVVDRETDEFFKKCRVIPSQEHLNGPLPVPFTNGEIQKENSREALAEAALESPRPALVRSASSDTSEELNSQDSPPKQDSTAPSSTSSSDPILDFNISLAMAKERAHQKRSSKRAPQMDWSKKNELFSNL
UniProt O60906: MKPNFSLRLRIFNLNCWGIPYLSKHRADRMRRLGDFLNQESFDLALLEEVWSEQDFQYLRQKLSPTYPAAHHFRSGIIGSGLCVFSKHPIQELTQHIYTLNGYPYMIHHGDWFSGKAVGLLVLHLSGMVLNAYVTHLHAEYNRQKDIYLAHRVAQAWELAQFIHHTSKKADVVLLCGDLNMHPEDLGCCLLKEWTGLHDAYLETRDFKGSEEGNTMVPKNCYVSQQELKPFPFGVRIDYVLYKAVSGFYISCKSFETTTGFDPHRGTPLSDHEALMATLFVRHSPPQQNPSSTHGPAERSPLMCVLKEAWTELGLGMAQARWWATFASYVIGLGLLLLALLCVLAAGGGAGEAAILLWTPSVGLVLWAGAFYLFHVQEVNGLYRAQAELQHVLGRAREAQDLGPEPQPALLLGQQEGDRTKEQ
UniProt Q9Y5X1: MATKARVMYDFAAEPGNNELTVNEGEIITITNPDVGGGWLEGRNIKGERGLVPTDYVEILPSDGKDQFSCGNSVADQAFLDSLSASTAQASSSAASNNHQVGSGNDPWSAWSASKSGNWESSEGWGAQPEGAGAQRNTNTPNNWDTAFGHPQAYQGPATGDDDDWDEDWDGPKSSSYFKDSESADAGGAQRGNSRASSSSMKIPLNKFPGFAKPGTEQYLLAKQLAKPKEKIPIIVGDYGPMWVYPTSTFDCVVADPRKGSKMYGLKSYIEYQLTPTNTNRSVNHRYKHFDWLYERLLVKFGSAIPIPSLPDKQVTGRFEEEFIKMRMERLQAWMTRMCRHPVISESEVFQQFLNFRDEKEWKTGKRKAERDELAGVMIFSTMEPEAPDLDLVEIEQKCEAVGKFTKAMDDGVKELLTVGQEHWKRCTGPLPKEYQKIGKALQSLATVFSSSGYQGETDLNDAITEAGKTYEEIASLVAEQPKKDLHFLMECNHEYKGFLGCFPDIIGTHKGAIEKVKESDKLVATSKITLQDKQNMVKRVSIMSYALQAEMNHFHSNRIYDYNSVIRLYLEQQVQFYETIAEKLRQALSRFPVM
UniProt Q99717: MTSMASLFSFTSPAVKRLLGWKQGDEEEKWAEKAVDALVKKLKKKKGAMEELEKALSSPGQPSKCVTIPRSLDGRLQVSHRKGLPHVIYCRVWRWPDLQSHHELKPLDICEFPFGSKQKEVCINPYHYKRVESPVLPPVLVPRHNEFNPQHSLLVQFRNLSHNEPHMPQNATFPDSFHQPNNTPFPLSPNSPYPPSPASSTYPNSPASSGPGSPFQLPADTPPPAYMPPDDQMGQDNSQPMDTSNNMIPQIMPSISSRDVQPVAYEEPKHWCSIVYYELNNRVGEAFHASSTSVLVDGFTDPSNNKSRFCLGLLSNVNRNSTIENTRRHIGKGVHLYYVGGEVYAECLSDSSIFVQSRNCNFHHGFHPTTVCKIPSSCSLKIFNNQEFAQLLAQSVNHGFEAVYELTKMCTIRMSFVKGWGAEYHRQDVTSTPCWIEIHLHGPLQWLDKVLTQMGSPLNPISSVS
UniProt Q9UNH7: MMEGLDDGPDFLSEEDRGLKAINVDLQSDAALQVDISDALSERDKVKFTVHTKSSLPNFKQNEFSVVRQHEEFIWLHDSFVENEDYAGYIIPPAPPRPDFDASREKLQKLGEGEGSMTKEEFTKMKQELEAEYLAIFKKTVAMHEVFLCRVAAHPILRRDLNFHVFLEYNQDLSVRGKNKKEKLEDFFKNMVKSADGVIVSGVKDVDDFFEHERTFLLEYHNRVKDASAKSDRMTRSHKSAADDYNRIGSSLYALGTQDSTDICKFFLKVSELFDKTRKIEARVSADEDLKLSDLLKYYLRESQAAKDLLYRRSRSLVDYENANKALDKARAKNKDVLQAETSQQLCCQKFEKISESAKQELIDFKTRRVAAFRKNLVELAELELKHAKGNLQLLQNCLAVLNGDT

Experiments:
Assay in all cases: log2 fold change, soluble protein after heating vs DMSO (PISA); higher = thermal stabilisation; K562 cells, 10 uM, 30 min; active = over 0.2 and 3.5 SD of the protein, either way, in both replicates (recomputed)
[1] = compound: C1=CC=C(C=C1)[C@H](COC2=CC3=C(C=C2)NC(=O)N3)NC(=O)C4=CC=CN(C4=O)CC5=CC(=C(C=C5)F)F
Outline: (§1)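 K562 cells at 2×10^6 cells/mL were treated with 10 μM compound for 30 min. Aliquots were heated for 3 min across 48°C-58°C, pooled, and extracted in PBS with 0.5% NP-40 at 4°C; soluble protein was the supernatant after 21,000xg for 90 min. Soluble protein was quantified by TMTpro 16plex LC-MS/MS with channel sums equalised, and reported as log2 fold change in thermal stability against DMSO controls, with values from duplicates.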

[2] = compound: CC1=C(SC2=C1C(=N[C@H](C3=NN=C(N32)C)CC(=O)N)C4=CC=C(C=C4)Cl)C
Outline: as §1

[3] = compound: CC1=C2C(=CC=C1)N=C(N(C2=O)C3=CC=CC=C3C)CN4C=NC5=C(N=CN=C54)N
Outline: as §1

[4] = compound: Cc1sc2c(c1C)C(c1ccc(Cl)cc1)=N[C@@H](CC(=O)OC(C)(C)C)c1nnc(C)n1-2
Outline: as §1

[5] = compound: c1ccc([C@@H]2C[C@H]2NC2CCNCC2)cc1
Outline: as §1

Measured: log2 fold change

SLC9A6 isoform 2 (UniProt Q92581)
inactive: [1] -0.007 | [2] 0.066 | [3] 0.068 | [4] -0.014 | [5] 0.047

SOD2 (UniProt P04179)
inactive: [1] 0.009 | [2] -0.009 | [3] -0.062 | [4] -0.015 | [5] 0.071

SMIM20 isoform 2 (UniProt Q8N5G0)
inactive: [1] 0.019 | [2] -0.034 | [3] 0.081 | [4] -0.125 | [5] -0.1

SMN1 (UniProt Q16637)
inactive: [1] 0.031 | [2] -0.057 | [3] -0.167 | [4] 0.171 | [5] 0.09

SLC9A8 isoform 2 (UniProt Q9Y2E8)
inactive: [1] 0.01 | [2] -0.147 | [3] -0.008 | [4] 0.028 | [5] 0.185

2 successive entries from above, quoted:
SMIM20 isoform 2 (UniProt Q8N5G0)
inactive: [1] 0.019 | [2] -0.034 | [3] 0.081 | [4] -0.125 | [5] -0.1

SMN1 (UniProt Q16637)
inactive: [1] 0.031 | [2] -0.057 | [3] -0.167 | [4] 0.171 | [5] 0.09

(continued)

SMARCAD1 isoform 2 (UniProt Q9H4L7)
inactive: [1] -0.029 | [2] 0.071 | [3] 0.214 | [4] -0.129 | [5] 0.004

SMU1 isoform 2 (UniProt Q2TAY7)
inactive: [1] -0.207

SMG9 (UniProt Q9H0W8)
inactive: [1] -0.01 | [2] 0.049 | [3] 0.057 | [4] 0.044 | [5] -0.071

SMR3B (UniProt P02814)
inactive: [1] -0.064

SLC9A3R1 (UniProt O14745)
inactive: [1] 0.022 | [2] 0.023 | [3] -0.01 | [4] 0 | [5] -0.002

SMCHD1 (UniProt A6NHR9)
inactive: [1] 0.129 | [2] 0.141 | [3] 0.063 | [4] 0.01 | [5] 0.036

SMPD2 (UniProt O60906)
inactive: [1] -0.008 | [2] -0.01 | [3] 0.125 | [4] -0.072 | [5] 0.102

SNX9 (UniProt Q9Y5X1)
inactive: [1] -0.051 | [2] 0.019 | [3] 0.048 | [4] 0.002 | [5] 0.017

SMAD5 (UniProt Q99717)
inactive: [1] 0.059 | [2] 0.033 | [3] 0.069 | [4] -0.064 | [5] 0.018

SNX6 (UniProt Q9UNH7)
inactive: [1] -0.037 | [2] 0.039 | [3] 0.053 | [4] 0.012 | [5] -0.11
